Experimental data published in PMC11844288.
Results are given in words; binding and its absence hold for the method and conditions named. In cells and extracts the contact can be indirect. A yes stands for co-enrichment or nearness to the bait. Other partners may have been found.

The chains behind the UniProt entries cited, without tags or fusion partners.
UniProt Q99459: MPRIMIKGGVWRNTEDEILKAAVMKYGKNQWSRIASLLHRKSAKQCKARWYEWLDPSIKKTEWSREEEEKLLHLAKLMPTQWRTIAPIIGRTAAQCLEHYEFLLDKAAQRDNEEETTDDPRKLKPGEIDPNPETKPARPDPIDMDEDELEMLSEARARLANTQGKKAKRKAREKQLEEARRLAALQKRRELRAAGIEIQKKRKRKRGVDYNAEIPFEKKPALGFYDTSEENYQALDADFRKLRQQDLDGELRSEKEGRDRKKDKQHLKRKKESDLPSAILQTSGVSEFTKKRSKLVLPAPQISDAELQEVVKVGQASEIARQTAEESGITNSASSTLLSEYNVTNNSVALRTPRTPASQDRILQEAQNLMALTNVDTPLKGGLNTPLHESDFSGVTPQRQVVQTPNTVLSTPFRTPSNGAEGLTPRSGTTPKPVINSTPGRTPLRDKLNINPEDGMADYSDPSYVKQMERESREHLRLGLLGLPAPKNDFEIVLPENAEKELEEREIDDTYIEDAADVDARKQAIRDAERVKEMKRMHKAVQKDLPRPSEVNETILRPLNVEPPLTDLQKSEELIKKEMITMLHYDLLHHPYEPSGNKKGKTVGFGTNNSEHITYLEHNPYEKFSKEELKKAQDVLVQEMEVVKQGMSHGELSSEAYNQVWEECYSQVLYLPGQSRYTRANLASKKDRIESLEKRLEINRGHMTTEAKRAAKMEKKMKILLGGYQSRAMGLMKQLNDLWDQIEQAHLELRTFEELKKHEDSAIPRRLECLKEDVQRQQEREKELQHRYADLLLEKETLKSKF
UniProt P28482: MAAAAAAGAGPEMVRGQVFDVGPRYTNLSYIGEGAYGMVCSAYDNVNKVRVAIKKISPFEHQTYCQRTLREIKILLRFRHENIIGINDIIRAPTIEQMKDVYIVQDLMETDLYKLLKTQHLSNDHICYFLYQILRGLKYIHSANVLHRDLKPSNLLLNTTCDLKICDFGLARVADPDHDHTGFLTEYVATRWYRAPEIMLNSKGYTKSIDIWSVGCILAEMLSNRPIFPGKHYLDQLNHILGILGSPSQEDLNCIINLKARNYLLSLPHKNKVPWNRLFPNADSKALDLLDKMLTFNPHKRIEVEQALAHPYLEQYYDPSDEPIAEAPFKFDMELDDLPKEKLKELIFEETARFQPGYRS

Target: Cell division cycle 5-like protein (CDC5L) (human) (UniProt Q99459)
Experiment: affinity purification with mass spectrometry; CO-IP of CDC5L from GC cell proteins on protein A/G-agarose beads, immunoprecipitated proteins analysed by mass spectrometry

- binding: binds
Substance: MAPK1 (from UniProt P28482 1-360)
